Measurements as given in article doi:10.1101/2023.09.21.558797.
Results are given in words; binding and its absence hold for the method and conditions named. Binding seen in cells or lysates may run through a third protein. Binding can be weak; no strength is given.

What was measured:
Experiment in all cases: pull-down; GST-Dyn1 PRR constructs on GSH-sepharose beads incubated with rat brain synaptosomal (P2) lysate; 20 mM Tris pH 7.4, 150 mM NaCl, 1% Triton X-100, 1 mM EDTA, 1 mM EGTA; 4 °C, 1 h; bound proteins by Western blot with antibodies to Endophilin A and Amphiphysin 1; only the target purified
[1] = molecular target: GST-Dyn1xB-PRR (full-length proline-rich region of Dynamin 1 splice variant xB, 746-851) (rat)
GST-Dyn1xB 806-851 (rat) = molecular target: GST-Dyn1xB 806-851 (rat)
GST-Dyn1xB 794-851 (rat) = molecular target: GST-Dyn1xB 794-851 (rat)

Measured: binding

B1: Amphiphysin 1 (endogenous, rat brain synaptosomes) (protein, UniProt O08838 1-683)
chain: MADIKTGIFAKNVQKRLNRAQEKVLQKLGKADETKDEQFEEYVQNFKRQEAEGTRLQRELRGYLAAIKGMQEASMKLTESLHEVYEPDWYGREDVKMVGEKCDVLWEDFHQKLVDGSLLTLDTYLGQFPDIKNRIAKRSRKLVDYDSARHHLEALQSSKRKDESRISKAEEEFQKAQKVFEEFNVDLQEELPSLWSRRVGFYVNTFKNVSSLEAKFHKEIAVLCHKLYEVMTKLGDQHADKAFSIQGAPSDSGPLRIAKTPSPPEEASPLPSPTASPNHTLAPASPAPVRPRSPSQTRKGPPVPPLPKVTPTKELQQENIINFFEDNFVPEINVTTPSQNEVLEVKKEETLLDLDFDPFKPDVTPAGSAAATHSPMSQTLPWDLWTTSTDLVQPASGGSFNDFTQPQDTSLFTMQTDQNMAETEQALPTEPQAEEPPTTAAAPTAGLDLGLEMEEPKEEAAIPPGTDAGETVGTEGSTGEEAEAEKAALPAGEGESPEGAKIDVESTELASSESPQAAELEAGAPQEKVIPSVVIEPASNHEGEEHQETTTGTETREATEDVAPQGPAGEKQELATEPTPLDSQAATPAPAGAVDASLSAGDAAQELPPGFLYKVETLHDFEAANSDELTLQRGDVVLVVPSDSEADQDAGWLVGVKESDWLQYRDLATYKGLFPENFTRHLE
binds: [1] | GST-Dyn1xB 806-851 (rat) | GST-Dyn1xB 794-851 (rat)
